The source of these data is the supplement of paper PMC4604168 (melanoma cell lines).

This is one part of the list. Repeats are few or missing, and single values can be far off.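 The apoptosis fraction was the count of cleaved-PARP antibody-stained nuclei relative to all DNA-stained nuclei, imaged in 1,536-well plates. Screening doses were set so most cells survived, and baseline and induced cleaved-PARP levels vary greatly across cell lines.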

The assay concerns MeWo. The experiment in a line: cleaved PARP positive nuclei fraction relative to DMSO control; melanoma cells; higher = more apoptosis. As to conditions: library dose: low library concentration; 72 h.
For `Cn1cc(C2=C(c3cn(C4CCN(Cc5ccccn5)CC4)c4ccccc34)C(=O)NC2=O)c2ccccc21` [Enzastaurin] + COc1ccc(COc2ccc(Cc3cnc(N)nc3N)cc2OC)cc1 [GW2580] (first compound 0.8 µM, partner dose 1 µM), the “cleaved PARP positive nuclei fraction” value is 80.8%.
`Cn1cc(C2=C(c3cn(C4CCN(Cc5ccccn5)CC4)c4ccccc34)C(=O)NC2=O)c2ccccc21` [Enzastaurin] + c1cc(-c2cnn3cc(-c4ccc(OCCN5CCCCC5)cc4)cnc23)ccn1 [Dorsomorphin] (first compound 0.8 µM, partner dose 0.4 µM): the “cleaved PARP positive nuclei fraction” value was 33.7%.
To `C[As](C)SC[C@H](NC(=O)CC[C@H](N)C(=O)O)C(=O)NCC(=O)O` [Darinaparsin] + C=CCn1c(=O)c2cnc(Nc3ccc(N4CCN(C)CC4)cc3)nc2n1-c1cccc(C(C)(C)O)n1 [MK1775] (first compound 0.4 µM, partner dose 0.02 µM) belongs 49.1%; to `Cn1cc(C2=C(c3cn(C4CCN(Cc5ccccn5)CC4)c4ccccc34)C(=O)NC2=O)c2ccccc21` [Enzastaurin] + OCCn1cc(-c2cnc3nnn(Cc4ccc5ncccc5c4)c3n2)cn1 [PF04217903] (first compound 0.8 µM, partner dose 1 µM), 31.4%; to `N.N.[Cl][Pt][Cl]` [cisplatin] + CN(NC(=O)CC(=O)NN(C)C(=S)c1ccccc1)C(=S)c1ccccc1 [STA4783] (first compound 1.6 µM, partner dose 0.006 µM), 62.9%.
Take `C=C(c1ccc(C(=O)O)cc1)c1cc2c(cc1C)C(C)(C)CCC2(C)C` [Bexarotene] + O=C(Oc1ccc([N+](=O)[O-])cc1)N1CCC(C(O)(c2ccc3c(c2)OCO3)c2ccc3c(c2)OCO3)CC1 [JZL184] (first compound 2 µM, partner dose 1 µM): the “cleaved PARP positive nuclei fraction” value turned out to be 20.8%.
Regarding `Cn1sc(=O)n(Cc2ccccc2)c1=O` + O=C(Oc1ccc([N+](=O)[O-])cc1)N1CCC(C(O)(c2ccc3c(c2)OCO3)c2ccc3c(c2)OCO3)CC1 [JZL184] (first compound 0.4 µM, partner dose 1 µM), the “cleaved PARP positive nuclei fraction” value came to 56.2%.
Take `C[As](C)SC[C@H](NC(=O)CC[C@H](N)C(=O)O)C(=O)NCC(=O)O` [Darinaparsin] + COc1cc(Nc2ncc(F)c(Nc3ccc4c(n3)NC(=O)C(C)(C)O4)n2)cc(OC)c1OC [Tamatinib] (first compound 0.4 µM, partner dose 0.4 µM): the “cleaved PARP positive nuclei fraction” value came out at 148%.
For the compound `CNC(=O)c1cc(Oc2ccc(NC(=O)Nc3ccc(Cl)c(C(F)(F)F)c3)cc2)ccn1` [sorafenib] + Cc1cc(SCc2sc(-c3ccc(C(F)(F)F)c(F)c3)nc2C)ccc1OCC(=O)O [GW0742] (first compound 0.4 µM, partner dose 2 µM), the “cleaved PARP positive nuclei fraction” value stood at 43.2%.
To `Cn1cc(C2=C(c3cn(C4CCN(Cc5ccccn5)CC4)c4ccccc34)C(=O)NC2=O)c2ccccc21` [Enzastaurin] + COC(=O)c1sccc1S(=O)(=O)Nc1ccc(Nc2ccccc2)cc1OC [GSK0660] (first compound 0.8 µM, partner dose 1 µM) belongs 171%; to `COc1cc([C@@H]2c3cc4c(cc3[C@@H](O[C@@H]3O[C@@H]5CO[C@@H](C)O[C@H]5[C@H](O)[C@H]3O)[C@H]3COC(=O)[C@H]23)OCO4)cc(OC)c1O` [etoposide] + C/C(O)=C(\C#N)C(=O)Nc1cc(Br)ccc1Br [LFM-A13] (first compound 0.02 µM, partner dose 2 µM), 134%; to `Cn1cnc2c(F)c(Nc3ccc(Br)cc3Cl)c(C(=O)NOCCO)cc21` [selumetinib] + O=C(Oc1ccc([N+](=O)[O-])cc1)N1CCC(C(O)(c2ccc3c(c2)OCO3)c2ccc3c(c2)OCO3)CC1 [JZL184] (first compound 0.015 µM, partner dose 1 µM), 179%.
Consider `Nc1ncn([C@H]2C[C@H](O)[C@@H](CO)O2)c(=O)n1` [decitabine] + O=C(Oc1ccc([N+](=O)[O-])cc1)N1CCC(C(O)(c2ccc3c(c2)OCO3)c2ccc3c(c2)OCO3)CC1 [JZL184] (first compound 0.1 µM, partner dose 1 µM), for which the “cleaved PARP positive nuclei fraction” value came to 86.6%.
As to `C[As](C)SC[C@H](NC(=O)CC[C@H](N)C(=O)O)C(=O)NCC(=O)O` [Darinaparsin] + O=C(O)c1ccc(-c2c[nH]c3ncc(-c4ccccc4)cc23)cc1C1CCCC1 [GSK650394] (first compound 0.4 µM, partner dose 0.16 µM), the “cleaved PARP positive nuclei fraction” value was 111%.
